Values of other authors in patent publication US8410115B2, “Methods of treating inflammatory and autoimmune diseases with alpha-4 inhibitory compounds” (Elan Pharmaceuticals, Inc., priority 2006, dated 2013).
At least one compound was matched to its structure with a doubt left.

System: JCV
Conditions: in vitro; cited from earlier work

## CN1CCN(C2=Nc3cc(Cl)ccc3Nc3ccccc32)CC1 [clozapine]
  Block of JCV cell entry: block
